{
  "source": "patent US9738660B2",
  "about": "“Selective inhibitors for protein kinases and pharmaceutical composition and use thereof” (National Chiao Tung University, priority 2014, dated 2017)",
  "tested_on": "40 types of protein kinases",
  "assay": "Selectivity over the panel of 40 protein kinases",
  "type": "biochemical",
  "settings": "500 nM; inhibited = residual kinase activity less than or equal to 50%",
  "text": "Kinase Profiler services provided by […]. (http://www.reactionbiology.com) were used to analyze the data of the 9 type-S protein kinase inhibitors against the 40 types of protein kinases.",
  "data": [
    {"smiles": "CN[C@@H]1C[C@H]2O[C@@](C)([C@@H]1OC)n1c3ccccc3c3c4c(c5c6ccccc6n2c5c31)C(=O)NC4", "note": "[STU, staurosporine, reference compound]", "values": [
      {"measurement": "number of types of protein kinases inhibited out of 40 tested", "result": 39},
      {"measurement": "percentage of the 40 types of protein kinases inhibited", "result": 97.5, "unit": "%"}
    ]}
  ]
}
